No constants are given. Whether binding was seen depends on the method and setting. Some binding calls cover weakened binding; strength is not graded here.

The target of assay [1] is ZBTB18 wild-type (human) (UniProt Q99592). Briefly: two-hybrid.
The target of assay [2] is ZBTB18 A502T (human) (UniProt Q99592). Briefly: two-hybrid.

Consider CTBP2 (from UniProt P56545 1-445), for which the binding result was “binds” in assay [1] and “no binding” in assay [2].

For the origin of these results see article doi:10.1101/134981.
